Source: PMC10652037
Results are given in words; binding and its absence hold for the method and conditions named. Binding seen in cells or lysates may run through a third protein. Some binding calls cover weakened binding; strength is not graded here.

Protein sequences, listed by entry. Tags and fused reporters are not part of them.
UniProt O95271: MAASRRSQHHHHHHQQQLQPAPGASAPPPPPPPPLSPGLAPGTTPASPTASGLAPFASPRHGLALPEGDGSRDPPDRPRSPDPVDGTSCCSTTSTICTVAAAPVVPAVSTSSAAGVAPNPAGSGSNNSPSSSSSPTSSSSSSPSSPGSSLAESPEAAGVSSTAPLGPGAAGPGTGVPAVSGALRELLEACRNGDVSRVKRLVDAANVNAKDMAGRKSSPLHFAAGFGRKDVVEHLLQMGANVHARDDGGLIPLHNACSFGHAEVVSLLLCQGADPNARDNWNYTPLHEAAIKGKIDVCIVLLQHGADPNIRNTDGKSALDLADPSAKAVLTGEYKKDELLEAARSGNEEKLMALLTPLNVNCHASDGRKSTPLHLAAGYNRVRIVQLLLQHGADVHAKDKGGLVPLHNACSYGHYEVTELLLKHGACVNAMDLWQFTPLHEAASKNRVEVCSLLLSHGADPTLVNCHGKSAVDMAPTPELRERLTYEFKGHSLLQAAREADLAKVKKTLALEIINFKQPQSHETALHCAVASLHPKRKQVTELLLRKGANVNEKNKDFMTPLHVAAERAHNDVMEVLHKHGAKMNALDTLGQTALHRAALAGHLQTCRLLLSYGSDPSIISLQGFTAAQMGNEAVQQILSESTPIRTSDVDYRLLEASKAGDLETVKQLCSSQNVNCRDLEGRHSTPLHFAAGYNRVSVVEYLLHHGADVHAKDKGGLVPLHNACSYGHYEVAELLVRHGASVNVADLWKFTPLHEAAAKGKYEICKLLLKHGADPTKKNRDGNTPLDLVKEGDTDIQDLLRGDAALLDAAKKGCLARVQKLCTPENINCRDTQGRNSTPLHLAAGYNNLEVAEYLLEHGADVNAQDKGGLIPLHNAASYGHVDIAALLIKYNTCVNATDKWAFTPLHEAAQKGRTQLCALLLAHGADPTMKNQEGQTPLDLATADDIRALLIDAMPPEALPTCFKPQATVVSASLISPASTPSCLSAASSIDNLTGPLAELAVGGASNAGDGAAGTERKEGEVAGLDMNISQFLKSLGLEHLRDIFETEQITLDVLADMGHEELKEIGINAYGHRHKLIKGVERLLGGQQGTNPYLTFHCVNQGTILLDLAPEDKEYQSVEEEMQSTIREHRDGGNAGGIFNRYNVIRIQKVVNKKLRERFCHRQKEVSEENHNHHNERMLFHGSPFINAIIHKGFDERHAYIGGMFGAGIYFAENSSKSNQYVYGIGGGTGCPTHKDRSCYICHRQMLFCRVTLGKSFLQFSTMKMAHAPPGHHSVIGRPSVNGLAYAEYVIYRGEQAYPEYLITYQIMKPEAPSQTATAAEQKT
UniProt O70239: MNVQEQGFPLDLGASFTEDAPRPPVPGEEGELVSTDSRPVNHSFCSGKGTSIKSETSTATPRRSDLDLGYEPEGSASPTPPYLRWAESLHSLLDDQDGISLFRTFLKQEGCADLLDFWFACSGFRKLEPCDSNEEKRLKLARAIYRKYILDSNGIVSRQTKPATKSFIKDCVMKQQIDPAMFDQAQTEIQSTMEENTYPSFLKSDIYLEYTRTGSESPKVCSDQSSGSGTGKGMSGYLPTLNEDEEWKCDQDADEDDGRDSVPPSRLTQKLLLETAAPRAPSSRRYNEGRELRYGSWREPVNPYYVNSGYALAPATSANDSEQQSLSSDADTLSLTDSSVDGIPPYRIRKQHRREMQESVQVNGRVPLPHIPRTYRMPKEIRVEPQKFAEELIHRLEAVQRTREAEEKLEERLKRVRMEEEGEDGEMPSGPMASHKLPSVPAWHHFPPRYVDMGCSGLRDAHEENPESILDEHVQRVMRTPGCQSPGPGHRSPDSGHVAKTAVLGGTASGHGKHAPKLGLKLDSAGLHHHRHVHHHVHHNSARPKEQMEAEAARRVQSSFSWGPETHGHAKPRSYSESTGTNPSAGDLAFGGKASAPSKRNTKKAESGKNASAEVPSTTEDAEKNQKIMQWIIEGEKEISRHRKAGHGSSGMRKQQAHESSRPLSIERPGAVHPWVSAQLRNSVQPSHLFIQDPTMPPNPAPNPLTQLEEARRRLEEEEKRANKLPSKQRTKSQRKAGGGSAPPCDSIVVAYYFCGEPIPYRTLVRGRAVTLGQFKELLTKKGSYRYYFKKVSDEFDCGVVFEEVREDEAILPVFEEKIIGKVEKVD

Molecular target: Flag-tagged human tankyrase (Flag-TNKS, human tankyrase 1) (human) (UniProt O95271)
Experiment: co-IP; Flag-TNKS and associated proteins precipitated with anti-Flag antibodies on G/A beads from lysates of U2OS cells expressing GFP-axin alone or with Flag-tankyrase; washed on beads, eluted by denaturation; western blot for axin and tankyrase

Substance: GFP-tagged rat axin (GFP-axin, 1-827) (from UniProt O70239 1-827)
- binding: binds
